Source: PubChem BioAssay AID743454 (Peter MacCallum Cancer Centre, 2014)

- Screen: 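Knock-downs lowering viability or raising caspase 3/7 activity in vorinostat-treated resistant cells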 (primary screen)
- Cells: human HCT116-VR colon cancer cells, selected for vorinostat resistance
- Reagents: siRNA pool against human genes, 40 nM siRNA pool
- Duration: vorinostat for 24 h, read-out about 72 h after transfection
- Conditions: vorinostat at 2.5 µM final
- Measured: 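Cell viability by CellTiter-Fluor and caspase 3/7 activity by luminescence, each scaled to mock wells per plate, duplicates averaged, then robust z-scored over all plates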
- Reading the numbers: viability robust z-score: higher = more viable cells than screen typical; caspase robust z-score: higher = more caspase 3/7 activity than screen typical
- Call rule: 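a knock-down is a hit when classed RV1 or RV2 for lowered viability, or CA1 or CA2 for caspase activation; those lethal without drug were dropped; hits were retested singly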
Shown is an unselected part of about 18,000 reagents. Over the whole deposit, 450 (2.5%) were called active. 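Single biological run; no consistent viability z cut-off exists, so the class columns, not z-scores, define the calls.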

Gene,viability hit class,caspase hit class,viability robust z-score,caspase robust z-score,Outcome
SH3YL1,no change,no change,0.34,0.18,inactive
ACAD10,no change,no change,-1.12,0.53,inactive
CX3CR1,no change,no change,-2.89,0.12,inactive
ZACN,no change,no change,-0.09,-0.31,inactive
TGFBRAP1,no change,no change,0.57,-0.17,inactive
PPARD,no change,no change,-0.88,0,inactive
FHL1,no change,no change,-0.2,-0.42,inactive
ZSCAN31,no change,no change,0.86,-0.71,inactive
PTK7,no change,no change,-1.27,2.37,inactive
KRTAP21-1,no change,no change,-0.58,0.36,inactive
DRC10,no change,no change,0.18,0.72,inactive
PITPNB,no change,no change,0.32,-0.54,inactive
NFIL3,no change,no change,-0.02,-1.17,inactive
SLC15A1,no change,no change,0.86,0.5,inactive
CASTOR3P,no change,CA1 (caspase activation),-0.56,6.53,active
DLX5,no change,no change,0.97,-0.5,inactive
COA4,no change,no change,1.01,-0.15,inactive
SLIRP-OT1,no change,no change,0.94,1.85,inactive
BBS7,no change,no change,-0.68,2.79,inactive
HNRNPCL1,no change,no change,1.2,0.06,inactive
HSPA12B,no change,no change,-0.22,-1.07,inactive
ACOT8,no change,no change,0.57,3.65,inactive
RPS17P16,no change,no change,0.1,-0.73,inactive
RABGEF1,no change,no change,1.01,0.68,inactive
CBLN2,no change,no change,-1.5,0.75,inactive
GJC2,no change,no change,0.7,0.01,inactive
PDE4D,no change,no change,1.84,1.25,inactive
TMEM134,no change,no change,-0.59,1.23,inactive
GATAD1,no change,no change,-1.57,2.02,inactive
MED20,no change,CA2 (caspase activation),-0.12,5.85,active
HMCES,no change,no change,0.16,2.08,inactive
FBP2,no change,no change,0.17,-0.34,inactive
COL4A5,no change,no change,0.83,-0.3,inactive
TMEM70,no change,no change,1.03,-0.29,inactive
MYL7,no change,no change,-1.18,4.39,inactive
CDRT15,no change,no change,1.06,-0.22,inactive
STARD4,no change,no change,0.08,3.66,inactive
SLC41A3,no change,no change,1.15,-0.22,inactive
EBI3,no change,no change,-0.69,1.18,inactive
SYF2,no change,no change,-1.36,-0.18,inactive
MAP2,no change,no change,-1.34,1.89,inactive
LRGUK,no change,no change,1.31,-1.1,inactive
TRIM58,no change,no change,-0.05,-0.57,inactive
FMO3,no change,no change,-0.49,-0.86,inactive
BEX1,no change,no change,1.55,-0.28,inactive
GYG2,no change,no change,0.3,-0.77,inactive
FOXD3,no change,no change,0.2,1.23,inactive
PGAM4,no change,no change,0.1,-1.03,inactive
RXRB,no change,no change,1.31,-0.3,inactive
RCN3,no change,no change,-0.76,1.84,inactive
ETV7,no change,no change,-2.1,1.52,inactive
MRPL41,no change,no change,0.09,-0.55,inactive
TMC3,no change,no change,0.27,-0.24,inactive
MEX3D,no change,no change,1.35,0.86,inactive
SIRPB1,no change,no change,-0.78,-1.09,inactive
GPR139,no change,no change,-0.39,0.95,inactive
ESYT3,no change,no change,-0.48,-0.36,inactive
GALNT18,no change,no change,1.04,-0.53,inactive
BRSK1,no change,no change,-0.29,0.94,inactive
FAM162A,no change,no change,0.63,-0.18,inactive
ST6GALNAC3,no change,no change,-0.4,-0.78,inactive
ELP1,no change,no change,0.09,-0.41,inactive
TTLL9,no change,no change,0.53,-0.62,inactive
EPCAM,no change,no change,0.95,-0.65,inactive
EPDR1,no change,no change,-0.3,-0.78,inactive
LONP2,no change,no change,-1.01,1.71,inactive
KLHL36,no change,no change,0.84,-1.08,inactive
GLUD1,no change,no change,0.02,2.76,inactive
SPARC,no change,no change,1.09,-0.76,inactive
CLTA,no change,no change,-0.99,0.17,inactive
TCP1,no change,no change,-0.12,0.24,inactive
DIO3,no change,no change,0.45,1.34,inactive
FCRL3,no change,no change,1.92,0.29,inactive

No new results follow: entries from further up.
Gene,viability hit class,caspase hit class,viability robust z-score,caspase robust z-score,Outcome
TTLL9,no change,no change,0.53,-0.62,inactive
EPCAM,no change,no change,0.95,-0.65,inactive
EPDR1,no change,no change,-0.3,-0.78,inactive
LONP2,no change,no change,-1.01,1.71,inactive
KLHL36,no change,no change,0.84,-1.08,inactive
GLUD1,no change,no change,0.02,2.76,inactive
